Laboratory results taken from the supplement of paper PMC10849652.
The other results are listed elsewhere or left out.

Amino acid sequences for entries named in this document (tags omitted). A change or cut given only in a name is not applied to a line headed by its entry.
UniProt P02794, whole entry, looked up: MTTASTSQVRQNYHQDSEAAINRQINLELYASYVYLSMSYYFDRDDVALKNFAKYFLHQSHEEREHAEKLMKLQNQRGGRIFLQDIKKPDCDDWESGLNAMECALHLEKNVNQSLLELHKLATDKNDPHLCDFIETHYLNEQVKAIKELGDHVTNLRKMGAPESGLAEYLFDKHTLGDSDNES
UniProt Q96RP9: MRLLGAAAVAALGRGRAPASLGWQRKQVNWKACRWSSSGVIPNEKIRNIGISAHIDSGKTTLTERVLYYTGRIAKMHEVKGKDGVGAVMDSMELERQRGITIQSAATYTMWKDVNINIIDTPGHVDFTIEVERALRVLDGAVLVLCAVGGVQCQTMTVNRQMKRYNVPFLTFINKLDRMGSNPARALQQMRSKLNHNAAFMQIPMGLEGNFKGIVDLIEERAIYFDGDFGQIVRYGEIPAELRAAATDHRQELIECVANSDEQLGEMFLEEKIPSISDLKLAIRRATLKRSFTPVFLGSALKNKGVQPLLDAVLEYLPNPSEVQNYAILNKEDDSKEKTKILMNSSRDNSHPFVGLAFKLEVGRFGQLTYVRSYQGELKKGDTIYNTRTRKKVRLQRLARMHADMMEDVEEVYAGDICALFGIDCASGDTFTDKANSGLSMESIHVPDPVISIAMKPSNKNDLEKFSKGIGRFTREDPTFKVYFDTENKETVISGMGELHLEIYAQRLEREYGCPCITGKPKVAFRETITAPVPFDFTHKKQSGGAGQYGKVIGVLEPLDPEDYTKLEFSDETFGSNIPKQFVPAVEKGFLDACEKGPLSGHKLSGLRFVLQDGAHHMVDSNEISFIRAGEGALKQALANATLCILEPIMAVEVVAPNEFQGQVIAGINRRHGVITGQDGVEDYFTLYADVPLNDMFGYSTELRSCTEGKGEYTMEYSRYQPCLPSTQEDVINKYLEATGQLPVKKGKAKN
UniProt Q7Z7M9: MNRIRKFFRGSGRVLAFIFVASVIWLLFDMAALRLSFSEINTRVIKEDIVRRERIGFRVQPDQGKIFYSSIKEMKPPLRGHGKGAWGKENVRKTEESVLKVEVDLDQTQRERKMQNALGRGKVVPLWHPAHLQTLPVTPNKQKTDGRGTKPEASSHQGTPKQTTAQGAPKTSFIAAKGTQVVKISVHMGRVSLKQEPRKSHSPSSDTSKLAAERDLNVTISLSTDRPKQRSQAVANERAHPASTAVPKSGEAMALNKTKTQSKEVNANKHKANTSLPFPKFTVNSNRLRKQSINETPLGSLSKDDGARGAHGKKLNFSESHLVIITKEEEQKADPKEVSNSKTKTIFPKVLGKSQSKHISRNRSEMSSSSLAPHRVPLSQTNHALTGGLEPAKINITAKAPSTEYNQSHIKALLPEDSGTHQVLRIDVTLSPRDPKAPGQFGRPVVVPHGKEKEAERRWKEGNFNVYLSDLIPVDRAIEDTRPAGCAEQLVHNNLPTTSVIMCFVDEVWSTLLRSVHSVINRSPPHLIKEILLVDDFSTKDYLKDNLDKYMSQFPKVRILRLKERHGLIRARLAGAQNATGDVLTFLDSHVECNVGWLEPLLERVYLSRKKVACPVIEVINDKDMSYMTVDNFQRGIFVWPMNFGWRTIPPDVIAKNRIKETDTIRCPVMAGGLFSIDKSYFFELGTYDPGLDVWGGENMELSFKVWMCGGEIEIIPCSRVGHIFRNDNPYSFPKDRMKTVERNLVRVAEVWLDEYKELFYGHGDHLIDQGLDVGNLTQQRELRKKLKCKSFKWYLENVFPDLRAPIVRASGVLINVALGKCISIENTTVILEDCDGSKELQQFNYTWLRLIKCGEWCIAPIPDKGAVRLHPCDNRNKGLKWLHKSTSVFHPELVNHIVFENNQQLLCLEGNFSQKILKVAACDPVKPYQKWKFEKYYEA
UniProt P02774: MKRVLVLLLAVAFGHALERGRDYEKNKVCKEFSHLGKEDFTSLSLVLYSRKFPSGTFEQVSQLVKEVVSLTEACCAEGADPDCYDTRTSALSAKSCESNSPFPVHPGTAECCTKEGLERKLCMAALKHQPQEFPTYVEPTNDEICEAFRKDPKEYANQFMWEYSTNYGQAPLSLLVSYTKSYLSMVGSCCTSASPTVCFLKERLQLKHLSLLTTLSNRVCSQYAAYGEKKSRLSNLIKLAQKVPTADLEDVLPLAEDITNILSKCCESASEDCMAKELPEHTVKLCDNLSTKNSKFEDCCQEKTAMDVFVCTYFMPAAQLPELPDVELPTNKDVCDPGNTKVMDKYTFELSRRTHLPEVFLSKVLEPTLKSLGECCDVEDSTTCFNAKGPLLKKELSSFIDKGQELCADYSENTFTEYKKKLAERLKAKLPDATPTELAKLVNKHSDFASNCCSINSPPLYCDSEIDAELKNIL
UniProt P48506: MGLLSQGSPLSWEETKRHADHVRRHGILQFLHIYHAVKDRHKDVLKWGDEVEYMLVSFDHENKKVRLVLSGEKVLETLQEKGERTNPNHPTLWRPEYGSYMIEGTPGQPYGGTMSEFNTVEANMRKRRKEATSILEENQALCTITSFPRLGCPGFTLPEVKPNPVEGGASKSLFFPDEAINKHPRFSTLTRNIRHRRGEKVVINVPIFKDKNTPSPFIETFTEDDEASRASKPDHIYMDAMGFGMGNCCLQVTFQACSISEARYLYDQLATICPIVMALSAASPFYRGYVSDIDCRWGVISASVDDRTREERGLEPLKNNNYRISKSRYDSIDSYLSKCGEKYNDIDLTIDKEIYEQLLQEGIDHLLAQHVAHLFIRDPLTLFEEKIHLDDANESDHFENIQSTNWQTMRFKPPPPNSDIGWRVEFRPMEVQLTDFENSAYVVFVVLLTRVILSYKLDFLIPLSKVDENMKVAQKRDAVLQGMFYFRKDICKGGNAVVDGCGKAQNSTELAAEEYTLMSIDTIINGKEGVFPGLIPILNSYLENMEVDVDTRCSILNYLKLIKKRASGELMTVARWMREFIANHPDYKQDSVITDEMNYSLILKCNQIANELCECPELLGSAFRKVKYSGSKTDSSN
UniProt P55789: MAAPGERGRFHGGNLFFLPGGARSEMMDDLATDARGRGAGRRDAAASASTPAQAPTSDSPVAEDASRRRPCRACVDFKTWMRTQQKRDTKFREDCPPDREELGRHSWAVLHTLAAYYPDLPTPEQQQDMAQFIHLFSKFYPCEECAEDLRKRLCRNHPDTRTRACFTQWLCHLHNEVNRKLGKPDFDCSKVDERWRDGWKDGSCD
UniProt Q01415: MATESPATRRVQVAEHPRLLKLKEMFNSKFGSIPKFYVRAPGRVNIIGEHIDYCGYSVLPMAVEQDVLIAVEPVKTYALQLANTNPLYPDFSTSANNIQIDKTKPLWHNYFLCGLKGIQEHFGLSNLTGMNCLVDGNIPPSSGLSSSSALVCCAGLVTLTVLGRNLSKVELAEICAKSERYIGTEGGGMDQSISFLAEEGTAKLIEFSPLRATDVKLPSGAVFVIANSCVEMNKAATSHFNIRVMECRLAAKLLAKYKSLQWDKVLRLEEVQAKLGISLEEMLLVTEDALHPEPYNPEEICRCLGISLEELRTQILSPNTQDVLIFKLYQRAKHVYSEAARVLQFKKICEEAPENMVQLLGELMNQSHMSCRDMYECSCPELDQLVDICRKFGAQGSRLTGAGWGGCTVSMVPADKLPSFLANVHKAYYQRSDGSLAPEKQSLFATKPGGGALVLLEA
UniProt P15407: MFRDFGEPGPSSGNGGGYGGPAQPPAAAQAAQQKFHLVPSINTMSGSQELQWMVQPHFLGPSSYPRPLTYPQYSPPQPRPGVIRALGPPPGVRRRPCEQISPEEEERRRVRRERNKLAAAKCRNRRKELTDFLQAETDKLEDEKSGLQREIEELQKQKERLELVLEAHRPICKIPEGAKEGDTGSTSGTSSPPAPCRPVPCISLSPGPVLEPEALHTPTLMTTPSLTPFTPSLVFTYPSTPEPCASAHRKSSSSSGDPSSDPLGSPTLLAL
UniProt P36268: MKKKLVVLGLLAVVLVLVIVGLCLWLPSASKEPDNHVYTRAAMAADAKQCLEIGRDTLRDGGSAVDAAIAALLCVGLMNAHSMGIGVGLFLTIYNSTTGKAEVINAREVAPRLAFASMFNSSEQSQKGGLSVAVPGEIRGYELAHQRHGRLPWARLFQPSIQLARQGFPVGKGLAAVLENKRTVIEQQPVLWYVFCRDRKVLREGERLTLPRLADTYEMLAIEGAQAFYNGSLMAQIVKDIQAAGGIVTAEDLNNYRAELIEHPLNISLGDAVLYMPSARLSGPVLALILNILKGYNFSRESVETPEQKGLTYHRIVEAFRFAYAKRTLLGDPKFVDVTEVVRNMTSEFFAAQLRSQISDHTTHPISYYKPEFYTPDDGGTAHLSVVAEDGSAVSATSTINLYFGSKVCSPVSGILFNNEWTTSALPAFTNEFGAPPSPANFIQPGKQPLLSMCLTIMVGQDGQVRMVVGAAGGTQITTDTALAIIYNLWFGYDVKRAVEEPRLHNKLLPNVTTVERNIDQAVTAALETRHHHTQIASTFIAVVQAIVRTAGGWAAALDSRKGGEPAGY
UniProt Q13480: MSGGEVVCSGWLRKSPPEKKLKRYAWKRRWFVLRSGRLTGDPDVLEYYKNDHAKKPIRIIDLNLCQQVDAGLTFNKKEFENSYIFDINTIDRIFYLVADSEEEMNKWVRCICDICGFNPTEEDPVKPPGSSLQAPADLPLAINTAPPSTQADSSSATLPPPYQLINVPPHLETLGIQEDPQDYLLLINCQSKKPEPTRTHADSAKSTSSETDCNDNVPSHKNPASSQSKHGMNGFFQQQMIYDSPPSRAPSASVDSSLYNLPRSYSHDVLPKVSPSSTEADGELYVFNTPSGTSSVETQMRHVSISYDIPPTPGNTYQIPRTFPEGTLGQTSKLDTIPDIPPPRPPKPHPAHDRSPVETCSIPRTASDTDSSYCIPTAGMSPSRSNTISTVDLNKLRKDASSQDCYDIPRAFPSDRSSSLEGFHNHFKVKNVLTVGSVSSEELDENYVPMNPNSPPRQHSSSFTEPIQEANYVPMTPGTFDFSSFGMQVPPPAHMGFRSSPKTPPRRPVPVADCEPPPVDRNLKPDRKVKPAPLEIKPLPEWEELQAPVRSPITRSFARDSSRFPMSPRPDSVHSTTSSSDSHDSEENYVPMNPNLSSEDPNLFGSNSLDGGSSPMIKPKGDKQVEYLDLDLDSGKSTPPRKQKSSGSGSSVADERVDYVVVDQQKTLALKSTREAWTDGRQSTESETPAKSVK
UniProt Q96C23: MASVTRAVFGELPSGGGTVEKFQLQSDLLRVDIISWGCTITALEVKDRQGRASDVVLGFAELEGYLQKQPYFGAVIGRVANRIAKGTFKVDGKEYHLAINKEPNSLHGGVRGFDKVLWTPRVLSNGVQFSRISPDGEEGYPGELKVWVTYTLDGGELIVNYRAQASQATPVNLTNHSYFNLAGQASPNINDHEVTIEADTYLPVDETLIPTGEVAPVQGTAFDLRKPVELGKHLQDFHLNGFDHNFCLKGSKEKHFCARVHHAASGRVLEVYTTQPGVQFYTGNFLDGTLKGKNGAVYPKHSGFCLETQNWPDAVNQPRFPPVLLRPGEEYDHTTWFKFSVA
UniProt Q96CU9: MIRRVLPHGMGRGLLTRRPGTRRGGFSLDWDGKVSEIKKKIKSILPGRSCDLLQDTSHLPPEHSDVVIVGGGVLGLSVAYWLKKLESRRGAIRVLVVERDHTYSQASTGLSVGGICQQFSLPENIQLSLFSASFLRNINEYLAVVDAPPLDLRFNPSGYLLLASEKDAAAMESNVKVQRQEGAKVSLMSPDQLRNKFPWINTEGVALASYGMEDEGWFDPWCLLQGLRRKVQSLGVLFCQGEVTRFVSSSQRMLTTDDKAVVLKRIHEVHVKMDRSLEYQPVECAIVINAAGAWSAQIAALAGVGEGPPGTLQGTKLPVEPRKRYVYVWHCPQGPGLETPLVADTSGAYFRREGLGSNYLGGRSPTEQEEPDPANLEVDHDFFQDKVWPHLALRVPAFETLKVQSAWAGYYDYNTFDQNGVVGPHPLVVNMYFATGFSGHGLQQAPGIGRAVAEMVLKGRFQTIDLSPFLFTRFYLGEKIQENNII
UniProt O75223: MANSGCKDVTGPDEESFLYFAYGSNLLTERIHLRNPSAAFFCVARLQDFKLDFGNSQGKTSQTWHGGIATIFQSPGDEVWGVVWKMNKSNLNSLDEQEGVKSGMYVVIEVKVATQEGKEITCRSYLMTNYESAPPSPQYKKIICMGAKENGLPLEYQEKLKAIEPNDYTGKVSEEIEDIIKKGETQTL
UniProt Q92820: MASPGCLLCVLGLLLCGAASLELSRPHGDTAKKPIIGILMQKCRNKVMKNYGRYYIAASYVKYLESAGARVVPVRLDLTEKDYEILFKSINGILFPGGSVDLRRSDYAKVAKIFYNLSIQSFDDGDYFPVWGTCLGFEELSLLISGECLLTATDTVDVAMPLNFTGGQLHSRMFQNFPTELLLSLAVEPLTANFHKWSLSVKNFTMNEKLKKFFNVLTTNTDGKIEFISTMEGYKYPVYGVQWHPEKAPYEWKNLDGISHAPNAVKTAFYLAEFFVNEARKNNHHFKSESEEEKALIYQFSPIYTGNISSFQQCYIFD
UniProt P30047: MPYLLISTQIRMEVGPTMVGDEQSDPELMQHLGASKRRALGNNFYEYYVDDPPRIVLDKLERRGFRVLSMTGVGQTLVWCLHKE

What was measured:
Experiment in all cases: log2 fold change, soluble protein after heating vs DMSO (PISA); higher = thermal stabilisation; K562 cells, 10 uM, 30 min; active = over 0.2 and 3.5 SD of the protein, either way, in both replicates (recomputed)
[1] = compound: CC[C@@H]1C(=O)N(C)c2cnc(Nc3ccc(C(=O)NC4CCN(C)CC4)cc3OC)nc2N1C1CCCC1
Method in brief: (§1)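 K562 cells at 2×10^6 cells/mL were treated for 30 min with 10 μM compound, and aliquots were heated for 3 min over 48°C-58°C before pooling. Extraction used PBS with 0.5% NP-40 at 4°C, and soluble protein was the supernatant after 21,000xg for 90 min, measured by TMTpro 16plex LC-MS/MS with channel sums equalised. Thermal stability values, relative to control samples and from duplicates, are log2 fold changes.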

[2] = compound: CC[C@@H]1C(=O)N(C)c2cnc(Nc3ccc(C(=O)N[C@H]4CC[C@H](N5CCN(CC6CC6)CC5)CC4)cc3OC)nc2N1C(C)C [volasertib]
Method in brief: as §1

[3] = compound: CC[C@H](C)N1C=C(C2=C(C=C(C=C21)C3=CN=C(C=C3)N4CCNCC4)C(=O)NCC5=C(C=C(NC5=O)C)C)C
Method in brief: as §1

[4] = compound: CC[C@H](C)[C@@H](C(=O)N[C@@H]([C@@H](C)O)C(=O)N[C@@H](CC(C)C)C(=O)[C@]1(CO1)C)NC(=O)[C@H]([C@@H](C)CC)N(C)C(=O)C [epoxomicin]
Method in brief: as §1

[5] = compound: CCn1c(C(=O)N(C2CC2)C2CC2)cc2c3c(ncn3C)c(Nc3cc(C)n(C)n3)nc21
Method in brief: as §1

[6] = compound: CCn1cc(-c2ccnc3[nH]c(-c4cccc(CN(C)C)c4)cc23)c(-c2ccc(NC(=O)N(C)C)cc2)n1
Method in brief: as §1

[7] = compound: CN(C)CC(=O)Nc1ccc2[nH]c(=O)c3ccccc3c2c1
Method in brief: as §1

[8] = compound: CN(CCOC1=CC=C(C=C1)C[C@H]2C(=O)NC(=O)S2)C3=CC=CC=N3 (racemic) [rosiglitazone]
Method in brief: as §1

[9] = compound: CN1C2=C(C3=C1C(=O)N(N=C3)CC4=CC(=CC=C4)N)SC(=C2)S(=O)C
Method in brief: as §1

[10] = compound: CN1CCC(CNc2ccc3ncc(-c4cccc(OC(F)(F)F)c4)n3n2)CC1
Method in brief: as §1

Measured: log2 fold change

FTH1 (UniProt P02794)
inactive: [1] -0.079 | [2] -0.011 | [3] 0.122 | [4] 0.069 | [5] 0.012 | [6] 0.021 | [7] -0.028 | [8] -0.038 | [9] 0.062 | [10] -0.115

GGCX (UniProt P38435)
inactive: [1] -0.061 | [2] -0.083 | [3] 0.017 | [4] -0.004 | [5] 0.027 | [6] 0.005 | [7] 0.022 | [8] -0.043 | [9] 0.041 | [10] 0.056

GAPDH (UniProt P04406)
inactive: [1] -0.021 | [2] 0.054 | [3] -0.007 | [4] -0.008 | [5] 0.023 | [6] -0.03 | [7] 0.009 | [8] -0.002 | [9] -0.064 | [10] 0.023

GFM1 (UniProt Q96RP9)
inactive: [1] 0.014 | [2] -0.01 | [3] 0.041 | [4] 0.081 | [5] -0.004 | [6] -0.089 | [7] 0.072 | [8] 0.046 | [9] -0.087 | [10] -0.182

GALNT5 (UniProt Q7Z7M9)
inactive: [1] -0.021 | [2] -0.09 | [3] 0.005 | [4] -0.001 | [5] 0.006 | [6] -0.002 | [7] -0.009 | [8] 0.013 | [9] 0.016 | [10] 0.047

GC isoform 3 (UniProt P02774)
inactive: [1] -0.02 | [2] 0.068 | [3] -0.004 | [4] -0.663 | [5] -0.037 | [6] 0.223 | [7] 0.002 | [8] -0.111 | [9] 0.154 | [10] 0.1

GET4 (UniProt Q7L5D6)
inactive: [1] -0.032 | [2] -0.136 | [3] 0.083 | [4] -0.043 | [5] 0.037 | [6] -0.169 | [7] 0.093 | [8] 0 | [9] 0.026 | [10] -0.136

GFPT1 (UniProt Q06210)
inactive: [1] 0.027 | [2] 0.065 | [3] 0.022 | [4] -0.01 | [5] -0.023 | [6] -0.084 | [7] 0.007 | [8] 0.024 | [9] -0.094 | [10] -0.003

GARS1 (UniProt P41250)
inactive: [1] 0.014 | [2] 0.075 | [3] -0.026 | [4] 0.014 | [5] 0.025 | [6] 0.023 | [7] -0.025 | [8] -0.032 | [9] -0.067 | [10] -0.013

GCLC (UniProt P48506)
inactive: [1] 0.006 | [2] 0.016 | [3] -0.004 | [4] 0.009 | [5] -0.023 | [6] -0.105 | [7] -0.022 | [8] 0.062 | [9] -0.006 | [10] -0.057

GDAP1 (UniProt Q8TB36)
inactive: [1] 0.228 | [2] 0.073 | [3] 0.023 | [4] -0.047 | [5] -0.04 | [6] 0.026 | [7] -0.107 | [8] 0.01 | [9] 0.047 | [10] -0.052

GFER (UniProt P55789)
inactive: [1] -0.071 | [2] 0.036 | [3] -0.03 | [4] -0.028 | [5] 0.101 | [6] -0.083 | [7] -0.061 | [8] 0.026 | [9] -0.088 | [10] -0.022

FTO (UniProt Q9C0B1)
inactive: [1] 0.045 | [2] 0.045 | [3] -0.002 | [4] 0.055 | [5] -0.02 | [6] -0.095 | [7] 0.022 | [8] -0.003 | [9] -0.03 | [10] 0.012

GALK2 (UniProt Q01415)
inactive: [1] 0.013 | [2] 0.05 | [3] -0.015 | [4] 0.018 | [5] -0.004 | [6] -0.027 | [7] -0.026 | [8] -0.01 | [9] -0.007 | [10] -0.025

2 consecutive entries out of the list so far, for reference:
GDAP1 (UniProt Q8TB36)
inactive: [1] 0.228 | [2] 0.073 | [3] 0.023 | [4] -0.047 | [5] -0.04 | [6] 0.026 | [7] -0.107 | [8] 0.01 | [9] 0.047 | [10] -0.052

GFER (UniProt P55789)
inactive: [1] -0.071 | [2] 0.036 | [3] -0.03 | [4] -0.028 | [5] 0.101 | [6] -0.083 | [7] -0.061 | [8] 0.026 | [9] -0.088 | [10] -0.022

(continued)

FOSL1 (UniProt P15407)
inactive: [1] 0.17 | [2] 0.026 | [3] -0.051 | [4] 0.055 | [5] 0.044 | [6] -0.059 | [7] -0.284 | [8] 0.104 | [9] -0.058 | [10] -0.044

FSCN1 (UniProt Q16658)
inactive: [1] -0.052 | [2] -0.044 | [3] 0.019 | [4] 0.127 | [5] 0.005 | [6] 0.007 | [7] 0.027 | [8] 0.01 | [9] -0.056 | [10] -0.005

GALE (UniProt Q14376)
inactive: [1] -0.03 | [2] 0.051 | [3] 0.015 | [4] 0.066 | [5] -0.065 | [6] -0.029 | [7] 0 | [8] -0.029 | [9] -0.144 | [10] 0.016

GGT2 isoform 3 (UniProt P36268)
inactive: [1] 0.168 | [2] 0.107 | [3] 0.046 | [4] -0.056 | [5] 0.06 | [6] -0.025 | [7] -0.042 | [8] -0.019 | [9] -0.051 | [10] 0.121

GAB1 isoform 2 (UniProt Q13480)
inactive: [1] -0.149 | [2] 0.003 | [3] 0.055 | [4] 0.005 | [5] -0.037 | [6] 0.041 | [7] 0 | [8] 0.004 | [9] 0.024 | [10] -0.094

GALM (UniProt Q96C23)
inactive: [1] 0.014 | [2] 0.033 | [3] 0.086 | [4] 0 | [5] -0.042 | [6] -0.046 | [7] 0.025 | [8] 0.01 | [9] -0.019 | [10] -0.028

FUNDC2 (UniProt Q9BWH2)
inactive: [1] 0.014 | [2] 0.143 | [3] -0.062 | [4] -0.015 | [5] -0.013 | [6] 0.027 | [7] -0.004 | [8] -0.009 | [9] -0.064 | [10] -0.015

FOXRED1 (UniProt Q96CU9)
inactive: [1] -0.009 | [2] -0.085 | [3] -0.036 | [4] 0.011 | [5] 0.018 | [6] 0.007 | [7] -0.063 | [8] 0.048 | [9] -0.116 | [10] -0.019

GALNT7 (UniProt Q86SF2)
inactive: [1] -0.082 | [2] -0.149 | [3] 0.061 | [4] 0.059 | [5] 0.004 | [6] -0.086 | [7] -0.022 | [8] 0.021 | [9] -0.084 | [10] -0.02

GGCT (UniProt O75223)
inactive: [1] 0.012 | [2] 0.052 | [3] -0.02 | [4] 0.051 | [5] -0.015 | [6] -0.069 | [7] 0.003 | [8] 0.029 | [9] -0.054 | [10] -0.048

GCFC2 (UniProt P16383)
inactive: [1] -0.005 | [2] -0.053 | [3] 0.131 | [4] 0.05 | [5] 0.011 | [6] 0.197 | [7] -0.011 | [8] -0.117 | [9] -0.068 | [10] -0.145

GGH (UniProt Q92820)
inactive: [1] -0.041 | [2] -0.047 | [3] -0.059 | [4] 0.064 | [5] 0.069 | [6] -0.025 | [7] 0.019 | [8] -0.046 | [9] -0.002 | [10] -0.038

GCHFR (UniProt P30047)
inactive: [1] 0.192 | [2] 0.07 | [3] -0.019 | [4] -0.009 | [5] -0.067 | [6] 0.161 | [7] 0.062 | [8] 0.064 | [9] 0.163 | [10] -0.124

GAGE2A (UniProt Q6NT46)
inactive: [1] 0.025 | [2] 0.042 | [3] -0.008 | [4] 0 | [5] -0.022 | [6] 0.014 | [7] 0.056 | [8] -0.023 | [9] 0.034 | [10] -0.001

GADD45GIP1 (UniProt Q8TAE8)
inactive: [1] 0.039 | [2] 0.152 | [3] -0.003 | [4] 0.05 | [5] -0.07 | [6] -0.039 | [7] 0.013 | [8] -0.081 | [9] 0.007 | [10] -0.026
